The inconclusive results got no clear call from the source; some entries with a clear call stand among them for comparison. For some of these results: A potency beside an inconclusive call is a rough fit, not a confirmed value. Activity calls are given as the source filed them. Calls follow the shape of the dose curve; as a rule, active = well fitted curve in the direction sought with a large enough effect; inconclusive = small, poorly fitted or top-dose-only effect, or another doubt; inactive = no such curve, though single readings can be large; an effect the other way counts as inactive or inconclusive.
Assays:
[1] = Quantitative High-Throughput drug screen in 47 multiple myeloma cell lines against the NCATS MIPE library collection: JIM3_ECACC cell viability assay (AID 1918963; also: nearly all actives have a fitted effect of over 35% in size; also: potency is read from the fitted curve at half-maximal effect); settings: JIM3 myeloma viability, CellTiter-Glo ATP, 48 h; viability, percent of control: at 45.8 µM (top of the series) unless noted
In short: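 Viability readout: CellTiter-Glo luminescence following 5 min room-temperature incubation with reagent. Prior exposure: 48 h, 37C, humidified 5% CO2, 500 cells per well.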

[2] = Quantitative High-Throughput drug screen in 47 multiple myeloma cell lines against the NCATS MIPE library collection: INA6_PLB cell viability assay (AID 1918965; also: nearly all actives have a fitted effect of over 55% in size; also: potency is read from the fitted curve at half-maximal effect); settings: INA6 myeloma viability, CellTiter-Glo ATP luminescence, 48 h; viability (% of control): at 45.8 µM (top of the series)
In short: (§1)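 Approved and investigational drugs from MIPE 4.0 were added by pin tool to 500 cells per well. After 48 hours at 37C, ATP-based CellTiter-Glo luminescence indicated remaining viability.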

[3] = Quantitative High-Throughput drug screen in 47 multiple myeloma cell lines against the NCATS MIPE library collection: JJN3_DSMZ cell viability assay (AID 1918966; also: potency is read from the fitted curve at half-maximal effect; nearly all actives have a fitted effect of over 50% in size); settings: JJN3 myeloma cells viability, CellTiter-Glo ATP, 48 h; viability, % of DMSO: at 45.8 µM (top of the series)
In short: (§2)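 Myeloma cells (500 per well) were exposed to MIPE 4.0 compounds by pin transfer and incubated 48 hours at 37C, 5% CO2. Viability was read as ATP by CellTiter-Glo luminescence, normalised to DMSO (100%) and media-only (0%) wells.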

[4] = Quantitative High-Throughput drug screen in 47 multiple myeloma cell lines against the NCATS MIPE library collection: KMS12BM_JCRB cell viability assay (AID 1918971); also: nearly all actives have a fitted effect of over 35% in size; also: potency is read from the fitted curve at half-maximal effect
In short: as §1

[5] = Quantitative High-Throughput drug screen in 47 multiple myeloma cell lines against the NCATS MIPE library collection: KMS20_JCRB cell viability assay (AID 1918973); settings: CellTiter-Glo ATP, 48 h; viability (% of DMSO): at 45.8 µM (top of the series); also: nearly all actives have a fitted effect of over 45% in size; also: potency is read from the fitted curve at half-maximal effect
In short: as §2

[6] = Quantitative High-Throughput drug screen in 47 multiple myeloma cell lines against the NCATS MIPE library collection: KMS21BM_JCRB cell viability assay (AID 1918974); settings: ATP luminescence, 48 h; viability: at 45.8 µM (top of the series) unless noted; also: potency is read from the fitted curve at half-maximal effect
In short: as §2

[7] = Quantitative High-Throughput drug screen in 47 multiple myeloma cell lines against the NCATS MIPE library collection: KMS26_JCRB cell viability assay (AID 1918975); settings: KMS26 myeloma cells viability, CellTiter-Glo ATP, 48 h; viability (% of DMSO): at 45.8 µM (top of the series); also: nearly all actives have a fitted effect of over 45% in size; also: potency is read from the fitted curve at half-maximal effect
In short: as §1

[8] = Quantitative High-Throughput drug screen in 47 multiple myeloma cell lines against the NCATS MIPE library collection: MMM1_PLB cell viability assay (AID 1918976); also: potency is read from the fitted curve at half-maximal effect; nearly all actives have a fitted effect of over 35% in size
In short: (§3)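 MIPE 4.0 approved/investigational drugs; 500 cells/well; 48 h 37 °C humidified 5% CO2; CTG luminescence readout; DMSO = 100%, media = 0% viability.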

[9] = Quantitative High-Throughput drug screen in 47 multiple myeloma cell lines against the NCATS MIPE library collection: MOLP8_DSMZ cell viability assay (AID 1918977); settings: MOLP8 myeloma viability, CellTiter-Glo ATP luminescence, 48 h; viability (% of control): at 45.8 µM (top of the series); also: nearly all actives have a fitted effect of over 45% in size; also: potency is read from the fitted curve at half-maximal effect
In short: as §3

[10] = Quantitative High-Throughput drug screen in 47 multiple myeloma cell lines against the NCATS MIPE library collection: NCIH929_DSMZ cell viability assay (AID 1918978); also: nearly all actives have a fitted effect of over 35% in size; also: potency is read from the fitted curve at half-maximal effect
In short: as §3

[11] = Quantitative High-Throughput drug screen in 47 multiple myeloma cell lines against the NCATS MIPE library collection: OCIMY1_PLB cell viability assay (AID 1918979); also: nearly all actives have a fitted effect of over 35% in size; also: potency is read from the fitted curve at half-maximal effect
In short: as §3

[12] = Quantitative High-Throughput drug screen in 47 multiple myeloma cell lines against the NCATS MIPE library collection: MM1S_ATCC cell viability assay (AID 1918980); also: potency is read from the fitted curve at half-maximal effect; nearly all actives have a fitted effect of over 45% in size
In short: as §3

[13] = Quantitative High-Throughput drug screen in 47 multiple myeloma cell lines against the NCATS MIPE library collection: MM1R_ATCC cell viability assay (AID 1918981); also: nearly all actives have a fitted effect of over 35% in size; also: potency is read from the fitted curve at half-maximal effect
In short: as §3

[14] = Quantitative High-Throughput drug screen in 47 multiple myeloma cell lines against the NCATS MIPE library collection: LP1_DSMZ cell viability assay (AID 1918982); also: nearly all actives have a fitted effect of over 35% in size; also: potency is read from the fitted curve at half-maximal effect
In short: as §3

[15] = Quantitative High-Throughput drug screen in 47 multiple myeloma cell lines against the NCATS MIPE library collection: KMS28PE_JCRB cell viability assay (AID 1918983)
In short: as §3

[16] = Quantitative High-Throughput drug screen in 47 multiple myeloma cell lines against the NCATS MIPE library collection: JIM1_ECACC cell viability assay (AID 1918964; also: potency is read from the fitted curve at half-maximal effect); settings: JIM1 myeloma viability, CellTiter-Glo ATP luminescence, 48 h; viability (% of DMSO): at 45.8 µM (top of the series)
In short: as §2

[17] = Quantitative High-Throughput drug screen in 47 multiple myeloma cell lines against the NCATS MIPE library collection: Karpas25_ECACC cell viability assay (AID 1918968; also: nearly all actives have a fitted effect of over 35% in size; also: potency is read from the fitted curve at half-maximal effect); settings: Karpas25 myeloma viability, CellTiter-Glo ATP, 48 h; viability (% of control): at 45.8 µM (top of the series)
In short: as §2

[18] = Quantitative High-Throughput drug screen in 47 multiple myeloma cell lines against the NCATS MIPE library collection: KMS12PE_JCRB cell viability assay (AID 1918972); settings: KMS12PE myeloma viability, CellTiter-Glo ATP, 48 h; viability: at 45.8 µM (top of the series); also: nearly all actives have a fitted effect of over 30% in size
In short: as §1

[19] = Quantitative High-Throughput drug screen in 47 multiple myeloma cell lines against the NCATS MIPE library collection: H1112_PLB cell viability assay (AID 1918967; also: potency is read from the fitted curve at half-maximal effect; nearly all actives have a fitted effect of over 30% in size); settings: H1112 myeloma cells viability, ATP luminescence, 48 h; viability: at 45.8 µM (top of the series)
In short: as §2

[20] = Quantitative High-Throughput drug screen in 47 multiple myeloma cell lines against the NCATS MIPE library collection: KMS27_JCRB cell viability assay (AID 1918970); settings: KMS27 myeloma cells, CellTiter-Glo ATP viability, 48 h; viability (% of DMSO): at 45.8 µM (top of the series); also: potency is read from the fitted curve at half-maximal effect; nearly all actives have a fitted effect of over 30% in size
In short: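 CellTiter-Glo luminescence after 48 h drug exposure at 37 °C; 500 cells/well, 1536-well format, pin-tool compound addition; DMSO = 100%, media-only = 0% viability.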

CCC(=O)OCC(=O)[C@@]1(OC(=O)CC)[C@@H](C)C[C@@H]2[C@H]3CCC4=CC(=O)C=C[C@]4(C)[C@@]3(F)[C@@H](O)C[C@@]21C
inactive: Potency [10] | Potency [11]
active: Potency [6] 2.64 µM
inconclusive: Potency [1] 20.9 µM [cytotoxic, single point] | Potency [2] 3.72 µM [cytotoxic, full curve, poor fit] | Potency [3] 29.6 µM [cytotoxic, single point] | Potency [4] 23.5 µM [cytotoxic, partial curve] | Potency [5] 0.372 µM [cytotoxic, full curve, poor fit] | Potency [7] 26.4 µM [cytotoxic, single point] | Potency [8] 20.9 µM [cytotoxic, partial curve, poor fit] | viability (% of control) [9] 42.4% [cytotoxic] | Potency [12] 0.0935 µM [cytotoxic, full curve] | Potency [13] 26.4 µM [cytotoxic, single point] | Potency [14] 0.0743 µM [cytotoxic, full curve] | Potency [15] 23.5 µM [cytotoxic, partial curve, poor fit]

CC1CC2C3CCC4=CC(=O)C=C[C@]4(C)[C@@]3(F)[C@@H](O)C[C@]2(C)[C@@]1(O)C(=O)CO (some centres undefined)
inactive: Potency [1] | Potency [13]
inconclusive: Potency [2] 1.05 µM [cytotoxic, full curve, poor fit] | Potency [3] 5.26 µM [cytotoxic, partial curve, poor fit] | Potency [4] 10.5 µM [cytotoxic, partial curve, poor fit] | Potency [5] 0.132 µM [cytotoxic, full curve, poor fit] | Potency [6] 33.2 µM [rising, partial curve, poor fit] | Potency [7] 0.003 µM [cytotoxic, full curve, poor fit] | Potency [11] 0.662 µM [cytotoxic, partial curve, poor fit] | Potency [14] 0.0047 µM [cytotoxic, full curve, poor fit]
active: Potency [9] 0.935 µM | Potency [10] 0.0526 µM | Potency [12] 0.59 µM

O=c1[nH]c(=O)n([C@H]2C[C@@H](O)[C@@H](CO)O2)cc1F
active: Potency [16] 18.7 µM | Potency [12] 11.8 µM
inconclusive: Potency [1] 5.26 µM [cytotoxic, partial curve] | Potency [17] 20.9 µM [cytotoxic, partial curve] | Potency [6] 1.66 µM [cytotoxic, partial curve, poor fit] | Potency [7] 20.9 µM [cytotoxic, single point] | Potency [9] 18.7 µM [cytotoxic, partial curve, poor fit] | Potency [10] 5.9 µM [cytotoxic, full curve] | Potency [11] 11.8 µM [cytotoxic, partial curve] | Potency [13] 26.4 µM [cytotoxic, single point]

Cn1c(=O)c2[nH]cnc2n(C)c1=O
inconclusive: Potency [3] 4.18 µM [cytotoxic, partial curve, poor fit] | Potency [6] 18.7 µM [rising, partial curve] | Potency [8] 1.87 µM [cytotoxic, partial curve, poor fit] | Potency [11] 0.0033 µM [rising, full curve, poor fit] | Potency [13] 2.96 µM [cytotoxic, full curve, poor fit]
inactive: Potency [1] | Potency [2] | Potency [17] | Potency [4] | Potency [18] | Potency [5] | Potency [7] | Potency [9] | Potency [14]

CC=CCC=CCCC(=O)[C@H]1O[C@@H]1C(N)=O
inconclusive: Potency [1] 33.2 µM [cytotoxic, single point] | Potency [19] 33.2 µM [cytotoxic, single point] | Potency [20] 13.2 µM [cytotoxic, partial curve] | Potency [4] 29.6 µM [cytotoxic, single point] | Potency [5] 3.32 µM [cytotoxic, full curve, poor fit] | Potency [7] 18.7 µM [cytotoxic, partial curve, poor fit] | Potency [8] 18.7 µM [cytotoxic, partial curve, poor fit] | Potency [10] 26.4 µM [cytotoxic, single point] | Potency [11] 14.8 µM [cytotoxic, single point] | Potency [14] 29.6 µM [cytotoxic, single point] | Potency [15] 33.2 µM [cytotoxic, single point]
active: Potency [3] 16.6 µM

Reference: PubChem BioAssay (NCATS)
